Assay results reported in patent US11590110B2, “Compositions and methods for reactivating latent immunodeficiency virus using a GSK-3 inhibitor” (priority 2017, dated 2023).
For at least one compound, name, drawing or mass did not settle the structure.

Tested on: latent HIV-GFP reporter virus in resting CD4+ T cells from human tonsil
Assay: Example 6: lymphoid tissue model of HIV latency, HIV-GFP reporter, flow cytometry
Assay type: cell-based

| Compound | latency reversal by first-generation LRAs (bryostatin-1 10 nM, JQ1 100 nM, panobinostat 50 nM, 48 hours) | effect on the activating effects of SB216763 |
| --- | --- | --- |
| Cc1[nH]c2ccccc2c1CCNCc1ccc(/C=C/C(=O)NO)cc1 [panobinostat] | only minimal latency reversal |  |
| CO[C@H]1C[C@@H]2CC[C@@H](C)[C@@](O)(O2)C(=O)C(=O)N2CCCC[C@H]2C(=O)O[C@H]([C@H](C)C[C@@H]2CC[C@@H](O)[C@H](OC)C2)CC(=O)[C@H](C)/C=C(\C)[C@@H](O)[C@@H](OC)C(=O)[C@H](C)C[C@H](C)/C=C/C=C/C=C/1C [Rapamycin] |  | blocked the activating effects of the SB216763 |
